These are yes or no findings as the source states them, for the method shown. In cells and extracts the contact can be indirect. Some entries that bind do so weakly or less than the wild type. Where a sequence is shown, tags or fusion partners need not be part of it.
T1: Nluc-FZD6-WT (human) (UniProt O60353)
T1 sequence: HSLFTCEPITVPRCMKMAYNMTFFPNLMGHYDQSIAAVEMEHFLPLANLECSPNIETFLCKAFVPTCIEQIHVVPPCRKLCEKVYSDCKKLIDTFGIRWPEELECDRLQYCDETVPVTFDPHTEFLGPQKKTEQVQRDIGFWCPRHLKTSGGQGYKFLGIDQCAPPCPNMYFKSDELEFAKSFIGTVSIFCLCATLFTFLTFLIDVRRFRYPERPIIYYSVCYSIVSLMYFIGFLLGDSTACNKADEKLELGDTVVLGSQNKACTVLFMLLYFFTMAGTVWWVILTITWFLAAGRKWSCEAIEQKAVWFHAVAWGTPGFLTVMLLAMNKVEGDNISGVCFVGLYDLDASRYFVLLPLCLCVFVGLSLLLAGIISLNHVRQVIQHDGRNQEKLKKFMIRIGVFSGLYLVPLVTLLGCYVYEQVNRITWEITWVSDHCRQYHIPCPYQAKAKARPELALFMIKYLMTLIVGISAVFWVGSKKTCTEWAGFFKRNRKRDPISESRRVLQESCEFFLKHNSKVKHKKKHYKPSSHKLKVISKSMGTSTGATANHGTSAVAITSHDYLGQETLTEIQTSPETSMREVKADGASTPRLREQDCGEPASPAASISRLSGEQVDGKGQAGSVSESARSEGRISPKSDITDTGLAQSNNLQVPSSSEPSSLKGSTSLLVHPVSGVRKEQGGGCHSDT


Columns and labels:
[1] = target: T1, Nluc-FZD6-WT (human); assay: FRET or BRET; intermolecular BRET in living HEK293T cells cotransfected with an Nluc-tagged FZD WT (donor) and an Nluc-lacking FZD amber mutant labelled with Tet-Cy3 (acceptor); BRET recorded before and after WNT
[2] = target: Nluc-FZD6-K466K-Cy3 sensor (human) (UniProt O60353); assay: FRET or BRET; basal BRET ratio of the Nluc- and Cy3-bearing FZD6 sensor in living HEK293T cells, native sensor against the D365A/R368A/Y369A dimer mutant; intra- and intermolecular BRET not separated

Row | binding [1] | binding [2] | Binder
1 | binds | – | Nluc-lacking FZD6-K466K-Cy3 (dimer control construct) (receptor, UniProt O60353 19-706, trans-cyclooct-2-ene-L-lysine (TCO*K) at 466, labelled with Tet-Cy3) HSLFTCEPITVPRCMKMAYNMTFFPNLMGHYDQSIAAVEMEHFLPLANLECSPNIETFLCKAFVPTCIEQIHVVPPCRKLCEKVYSDCKKLIDTFGIRWPEELECDRLQYCDETVPVTFDPHTEFLGPQKKTEQVQRDIGFWCPRHLKTSGGQGYKFLGIDQCAPPCPNMYFKSDELEFAKSFIGTVSIFCLCATLFTFLTFLIDVRRFRYPERPIIYYSVCYSIVSLMYFIGFLLGDSTACNKADEKLELGDTVVLGSQNKACTVLFMLLYFFTMAGTVWWVILTITWFLAAGRKWSCEAIEQKAVWFHAVAWGTPGFLTVMLLAMNKVEGDNISGVCFVGLYDLDASRYFVLLPLCLCVFVGLSLLLAGIISLNHVRQVIQHDGRNQEKLKKFMIRIGVFSGLYLVPLVTLLGCYVYEQVNRITWEITWVSDHCRQYHIPCPYQAKAKARPELALFMIKYLMTLIVGISAVFWVGSKKTCTEWAGFFKRNRKRDPISESRRVLQESCEFFLKHNSKVKHKKKHYKPSSHKLKVISKSMGTSTGATANHGTSAVAITSHDYLGQETLTEIQTSPETSMREVKADGASTPRLREQDCGEPASPAASISRLSGEQVDGKGQAGSVSESARSEGRISPKSDITDTGLAQSNNLQVPSSSEPSSLKGSTSLLVHPVSGVRKEQGGGCHSDT
2 | – | binds | Nluc-FZD6-K466K-Cy3 sensor (receptor, UniProt O60353 19-706, trans-cyclooct-2-ene-L-lysine (TCO*K) at 466, labelled with Tet-Cy3) HSLFTCEPITVPRCMKMAYNMTFFPNLMGHYDQSIAAVEMEHFLPLANLECSPNIETFLCKAFVPTCIEQIHVVPPCRKLCEKVYSDCKKLIDTFGIRWPEELECDRLQYCDETVPVTFDPHTEFLGPQKKTEQVQRDIGFWCPRHLKTSGGQGYKFLGIDQCAPPCPNMYFKSDELEFAKSFIGTVSIFCLCATLFTFLTFLIDVRRFRYPERPIIYYSVCYSIVSLMYFIGFLLGDSTACNKADEKLELGDTVVLGSQNKACTVLFMLLYFFTMAGTVWWVILTITWFLAAGRKWSCEAIEQKAVWFHAVAWGTPGFLTVMLLAMNKVEGDNISGVCFVGLYDLDASRYFVLLPLCLCVFVGLSLLLAGIISLNHVRQVIQHDGRNQEKLKKFMIRIGVFSGLYLVPLVTLLGCYVYEQVNRITWEITWVSDHCRQYHIPCPYQAKAKARPELALFMIKYLMTLIVGISAVFWVGSKKTCTEWAGFFKRNRKRDPISESRRVLQESCEFFLKHNSKVKHKKKHYKPSSHKLKVISKSMGTSTGATANHGTSAVAITSHDYLGQETLTEIQTSPETSMREVKADGASTPRLREQDCGEPASPAASISRLSGEQVDGKGQAGSVSESARSEGRISPKSDITDTGLAQSNNLQVPSSSEPSSLKGSTSLLVHPVSGVRKEQGGGCHSDT

From PMC8580317
